{
  "source": "PubChem BioAssay AID206",
  "about": "(DTP/NCI, 2004)",
  "system": "nude mice, HT29 intrarenal xenograft, tumor weight T/C",
  "assay": "NCI In Vivo Anticancer Drug Screen. Data for tumor model HT29;CX-1 Human Adenocarcinoma (MER+) (intrarenal inoculation) in NU/NU Swiss (nude) mice",
  "conditions": "T/C endpoint: mean tumor weight change, higher T/C = larger tumour; for T/C: evaluated on day 15",
  "how_it_was_run": "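T/C = treated-group value ÷ vehicle-group value, using tumor size or survival.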",
  "key": {"[1]": {"conditions": "dose: 300.0 mg/kg/injection, schedule: Q04DX004 (sc), vehicle: Klucel (hydroxypropylcellulose) (HPC)"}, "[2]": {"conditions": "dose: 600.0 mg/kg/injection, schedule: Q04DX004 (sc), vehicle: Klucel (hydroxypropylcellulose) (HPC)"}, "[3]": {"conditions": "dose: 1200.0 mg/kg/injection, schedule: Q04DX004 (sc), vehicle: Klucel (hydroxypropylcellulose) (HPC)"}, "[4]": {"conditions": "dose: 7.5 mg/kg/injection, schedule: Q04DX004 (sc), vehicle: Klucel (hydroxypropylcellulose) (HPC)"}, "[5]": {"conditions": "dose: 15.0 mg/kg/injection, schedule: Q04DX004 (sc), vehicle: Klucel (hydroxypropylcellulose) (HPC)"}},
  "note": "The list does not hold the whole screen: it is rich in T/C values a quarter to a half above the control, in often repeated tests (any T/C) and in doses without a T/C. Further doses and runs are listed elsewhere. T/C: endpoint of the treated group in % of that of the vehicle group. Schedule codes are those of the source, read here as Q, the interval in days (D) or hours (H), X, the number of doses. Some T/C values are followed by the survivors on the day toxicity was checked, most often the fifth; without a count, all were alive then. Some doses were run more than once; their values stand side by side, smallest first. Some doses have a count of surviving animals in place of a T/C: the source files T/C as zero there, which appears to mark a toxic dose or a test without result, not a measured value. Survivors were counted at the toxicity check, usually on the fifth day, unless a day is given; later deaths do not show. Starred links: 1 amine or outer side, 2 acyl side, 3 side chain; linkers in the order of their positions; H or OH if unused. Non-standard residues stand in square brackets, D forms with d. Residues, ends and D or L forms follow the SMILES beside them. *: point of attachment. X2 = CCC(=O)CC1CC(C)CC(C(=O)[*:2])N1[*:1]; X1 = CCCCCCCCC(C)C(=O)*; Aib = CC(C)(N)C(=O)O; X3 = CC(CN(C)CCO)N*",
  "data": [
    {"compound": "Nc1ncn(C2CC(O)C(CO)O2)c(=O)n1", "note": "(configuration not stated)", "values": [
      {"measurement": "survivor count", "setting": "dose: 0.4 mg/kg/injection, schedule: Q01DX010 (sc), vehicle: saline", "result": "0 of 3 on day 11"},
      {"measurement": "survivor count", "setting": "dose: 0.8 mg/kg/injection, schedule: Q01DX010 (sc), vehicle: saline", "result": "0 of 3 on day 11"},
      {"measurement": "survivor count", "setting": "dose: 1.6 mg/kg/injection, schedule: Q01DX010 (sc), vehicle: saline", "result": "0 of 3 on day 11"}
    ]},
    {"compound": "O=C(O)C(CSC(c1ccccc1)(c1ccccc1)c1ccccc1)N=Cc1cccs1", "note": "(configuration not stated)", "values": [
      {"measurement": "survivor count", "setting": "dose: 200.0 mg/kg/injection, schedule: Q04DX004 (sc), vehicle: suspension in saline", "result": "2 of 5 on day 15"},
      {"measurement": "survivor count", "setting": "dose: 800.0 mg/kg/injection, schedule: Q04DX004 (sc), vehicle: suspension in saline", "result": "0 of 6 on day 15 and 2 of 6 on day 15"}
    ]},
    {"compound": "CCCCCCCCCCCCCCCCCCOCC(COP(=O)([O-])OCC[N+](C)(C)C)OC", "note": "(configuration not stated)", "values": [
      {"measurement": "survivor count", "setting": "dose: 300.0 mg/kg/injection, schedule: Q04DX004 (sc), vehicle: saline", "result": "0 of 6 on day 15"}
    ]},
    {"compound": "Nc1cc2[nH]cnc2c(=O)[nH]1", "values": [
      {"measurement": "survivor count", "setting": "dose: 100.0 mg/kg/injection, schedule: Q01DX010 (sc), vehicle: saline", "result": "0 of 3 on day 11"},
      {"measurement": "survivor count", "setting": "dose: 200.0 mg/kg/injection, schedule: Q01DX010 (sc), vehicle: saline", "result": "0 of 3 on day 11"}
    ]},
    {"compound": "C[C@]12CCC(=O)C=C1CC[C@@H]1[C@@H]2[C@@H](O)C[C@@]2(C)[C@H]1CC[C@]2(O)C(=O)CO", "values": [
      {"measurement": "survivor count", "setting": "[1]", "result": "2 of 4 on day 15"},
      {"measurement": "survivor count", "setting": "[2]", "result": "1 of 6 on day 15"},
      {"measurement": "survivor count", "setting": "[3]", "result": "0 of 6 on day 15 and 2 of 6 on day 15"}
    ]},
    {"compound": "CC(=O)OCC1OC([S-])C(OC(C)=O)C(OC(C)=O)C1OC(C)=O.CC[PH+](CC)CC.CC[PH+](CC)CC.[Au].[Au]", "note": "(configuration not stated)", "values": [
      {"measurement": "survivor count", "setting": "dose: 20.0 mg/kg/injection, schedule: Q04DX004 (sc), vehicle: Klucel (hydroxypropylcellulose) (HPC)", "result": "3 of 6 on day 15"},
      {"measurement": "survivor count", "setting": "dose: 40.0 mg/kg/injection, schedule: Q04DX004 (sc), vehicle: Klucel (hydroxypropylcellulose) (HPC)", "result": "0 of 6 on day 15"}
    ]},
    {"compound": "CCNC(=O)OCc1c(COC(=O)NCC)c(-c2ccc(Cl)c(Cl)c2)n2c1CCC2", "values": [
      {"measurement": "survivor count", "setting": "dose: 75.0 mg/kg/injection, schedule: Q04DX004 (sc), vehicle: saline with Tween-80", "result": "3 of 6 on day 15"},
      {"measurement": "survivor count", "setting": "dose: 150.0 mg/kg/injection, schedule: Q04DX004 (sc), vehicle: saline with Tween-80", "result": "1 of 6 on day 15 and 2 of 6 on day 15"},
      {"measurement": "survivor count", "setting": "dose: 300.0 mg/kg/injection, schedule: Q04DX004 (sc), vehicle: saline with Tween-80", "result": "1 of 6 on day 15 and 3 of 6 on day 15"}
    ]},
    {"compound": "CN(C)c1ccc2c(N(C)C)cc(N(C)C)nc2c1", "values": [
      {"measurement": "survivor count", "setting": "dose: 150.0 mg/kg/injection, schedule: Q04DX004 (sc), vehicle: Klucel (hydroxypropylcellulose) (HPC)", "result": "0 of 6 on day 15"},
      {"measurement": "survivor count", "setting": "[1]", "result": "0 of 6 on day 15"},
      {"measurement": "survivor count", "setting": "[2]", "result": "0 of 6 on day 15"}
    ]},
    {"compound": "Cc1cc(N(CC(C)Br)CC(C)Br)ccc1N=Nc1ccccc1C(=O)O", "note": "(configuration not stated)", "values": [
      {"measurement": "survivor count", "setting": "dose: 25.0 mg/kg/injection, schedule: Q01DX010 (sc), vehicle: saline with Tween-80", "result": "0 of 3 on day 11"}
    ]},
    {"compound": "CC(CN1CC(=O)NC(=O)C1)N1CC(=O)NC(=O)C1", "note": "(configuration not stated)", "values": [
      {"measurement": "survivor count", "setting": "[3]", "result": "0 of 6 on day 15"}
    ]},
    {"compound": "CCCCCCCCC(C)C(=O)N1CCCC1C(=O)N1C(CC(=O)CC)CC(C)CC1C(=O)NC(C)C(=O)NC(C)(C)C(=O)NC(C)(C)C(=O)NC(C(=O)NC(C)C(=O)NC(C)(C)C(=O)NC(C)(C)C(=O)NC(C)CN(C)CCO)C(C)CC", "note": "(configuration not stated) (X1-P[X2]A[Aib][Aib]IA[Aib][Aib]-X3; configuration not given here)", "values": [
      {"measurement": "T/C", "setting": "[4]", "result": "50, 78 [5 of 6 alive on day 15], 96 % of control [4 of 6 alive on day 15]"},
      {"measurement": "survivor count", "setting": "[4]", "result": "2 of 6 on day 15"},
      {"measurement": "T/C", "setting": "[5]", "result": "17 % of control"},
      {"measurement": "survivor count", "setting": "[5]", "result": "0 of 6 on day 15 and 2 of 6 on day 15"},
      {"measurement": "survivor count", "setting": "dose: 30.0 mg/kg/injection, schedule: Q04DX004 (sc), vehicle: Klucel (hydroxypropylcellulose) (HPC)", "result": "0 of 6 on day 15 and 3 of 6 on day 15"},
      {"measurement": "survivor count", "setting": "dose: 60.0 mg/kg/injection, schedule: Q04DX004 (sc), vehicle: Klucel (hydroxypropylcellulose) (HPC)", "result": "0 of 6 on day 15"}
    ]}
  ]
}
